Measured values as given in PMC8045197.
Results are given in words; binding and its absence hold for the method and conditions named. In cells and extracts the contact can be indirect. Some results given as binding are weak or reduced against the parent protein; the word gives no strength. For some assays here: Tags and fused reporters may be left off the sequences shown.

Chains of the proteins cited; added tags and fusions are not shown.
UniProt P49759: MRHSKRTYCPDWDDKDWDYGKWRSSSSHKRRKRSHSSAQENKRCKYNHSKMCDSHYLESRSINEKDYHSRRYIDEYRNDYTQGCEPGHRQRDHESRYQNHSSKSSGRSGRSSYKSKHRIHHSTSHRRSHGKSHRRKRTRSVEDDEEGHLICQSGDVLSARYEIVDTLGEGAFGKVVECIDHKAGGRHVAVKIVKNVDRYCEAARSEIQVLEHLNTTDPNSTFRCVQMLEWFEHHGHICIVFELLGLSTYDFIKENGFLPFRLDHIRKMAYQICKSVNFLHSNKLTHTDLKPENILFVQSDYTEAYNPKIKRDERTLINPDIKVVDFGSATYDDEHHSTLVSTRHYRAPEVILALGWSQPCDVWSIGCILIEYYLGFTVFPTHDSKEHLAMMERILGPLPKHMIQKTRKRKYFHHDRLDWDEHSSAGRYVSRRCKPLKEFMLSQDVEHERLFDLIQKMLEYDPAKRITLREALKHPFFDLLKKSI

Tests used:
HA-tagged CLK1 (human) = HA-tagged CLK1 (human) (UniProt P49759); assay: co-IP; PANC-1, BxPC-3 (and 293T) cells transfected with plasmids encoding HA-CLK1 and Flag-SRSF5; RIPA Lysis Buffer; co-immunoprecipitation and western blot
[1] = biological target: endogenous CLK1 (human (endogenous in PANC-1)) (UniProt P49759); assay: co-IP; endogenous proteins in PANC-1 cell lysates; immunoprecipitation with an anti-CLK1 or anti-SRSF5 antibody, normal IgG as control; western blot

Row | Binder | binding (HA-tagged CLK1 (human)) | binding [1]
1 | Flag-tagged SRSF5 (protein, UniProt Q13243 1-272) MSGCRVFIGRLNPAAREKDVERFFKGYGRIRDIDLKRGFGFVEFEDPRDADDAVYELDGKELCSERVTIEHARARSRGGRGRGRYSDRFSSRRPRNDRRNAPPVRTENRLIVENLSSRVSWQDLKDFMRQAGEVTFADAHRPKLNEGVVEFASYGDLKNAIEKLSGKEINGRKIKLIEGSKRHSRSRSRSRSRTRSSSRSRSRSRSRSRKSYSRSRSRSRSRSRSKSRSVSRSPVPEKSQKRGSSSRSKSPASVDRQRSRSRSRSRSVDSGN | binds | 
2 | endogenous SRSF5 (protein, UniProt Q13243 1-272) MSGCRVFIGRLNPAAREKDVERFFKGYGRIRDIDLKRGFGFVEFEDPRDADDAVYELDGKELCSERVTIEHARARSRGGRGRGRYSDRFSSRRPRNDRRNAPPVRTENRLIVENLSSRVSWQDLKDFMRQAGEVTFADAHRPKLNEGVVEFASYGDLKNAIEKLSGKEINGRKIKLIEGSKRHSRSRSRSRSRTRSSSRSRSRSRSRSRKSYSRSRSRSRSRSRSKSRSVSRSPVPEKSQKRGSSSRSKSPASVDRQRSRSRSRSRSVDSGN |  | binds
